Source: PubChem BioAssay AID328 (DTP/NCI, 2004)
The list is a part of this screen's results and no random one: it gathers tests that were run many times, whatever their T/C, doses with no T/C, and many T/C values between a quarter and a half above the control. Other doses and runs of a compound stand elsewhere. T/C is the treated group as % of the vehicle group. Some entries give survivors of the animals treated and no T/C: the source files T/C as zero there, which appears to mark a toxic dose or a test without result, not a measured value. Some doses without a T/C left all or most animals alive at the check, yet need not have been tolerated: the source hardly ever lists a survival T/C far under the control, and the zero likely stands for such cases as well. Survivors were counted at the toxicity check, usually on the fifth day, unless a day is given; later deaths do not show. Schedule codes are those of the source, taken here to give the interval after Q, in days (D) or hours (H), and the number of doses after X. For survival time, this PubChem deposit counts one and a half times the control or more as active, and values a quarter to a half above the control carry no call in these data; other NCI protocols may use other cut-offs. Some T/C values are followed by the survivors on the day toxicity was checked, most often the fifth; where none is given, no animal had died by that day.

Test system: BDF1 mice, P388 leukemia ip, median survival T/C
Test: NCI In Vivo Anticancer Drug Screen. Data for tumor model P388 Leukemia (intraperitoneal) in B6D2F1 (BDF1) mice
Conditions: T/C endpoint: median survival time, higher T/C = longer survival
In short: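 Reported as T/C, where T is the survival measurement in dosed animals and C the same measurement in vehicle controls.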

## CCCCC/C(C)=N\Nc1ccccn1
dose: 100.0 mg/kg/injection, schedule: Q01DX009 (ip), vehicle: Klucel (hydroxypropylcellulose) (HPC)
  T/C: 140 % of control [5 of 6 alive]
dose: 200.0 mg/kg/injection, schedule: Q01DX009 (ip), vehicle: Klucel (hydroxypropylcellulose) (HPC)
  survivor count: 0 of 6

## Cc1cc(-c2ccccc2)c2ccccc2c1N(CC(=O)O)S(=O)(=O)c1ccccc1
dose: 66.0 mg/kg/injection, schedule: Q01DX009 (ip), vehicle: saline with Tween-80
  survivor count: 6 of 6
dose: 150.0 mg/kg/injection, schedule: Q01DX009 (ip), vehicle: saline with Tween-80
  T/C: 130 % of control

## COc1cccc2c1C(=O)c1c(O)c3c(c(O)c1C2=O)C[C@@](O)(/C(CO)=N/NC(=O)c1ccc(Cl)c(Cl)c1)C[C@@H]3OC1CC(N)C(O)C(C)O1 (some centres undefined)
dose: 6.25 mg/kg/injection, schedule: Q01DX009 (ip), vehicle: water
  T/C: 140 % of control
dose: 25.0 mg/kg/injection, schedule: Q01DX009 (ip), vehicle: water
  survivor count: 6 of 6

## CC1OC2CC(=O)OC2C2=C1C(=O)c1c(O)c3c(c(O)c1C2=O)C1CC(O)C3(O)C(C)O1 (centres undefined)
dose: 20.0 mg/kg/injection, schedule: Q01DX010 (ip), vehicle: saline
  survivor count: 1 of 6

## Cc1c2oc3c(C)ccc(C(=O)NCCCc4ccccc4)c3nc-2c(C(=O)NCCCc2ccccc2)c(N)c1=O
dose: 400.0 mg/kg/injection, schedule: Q04DX002 (ip), vehicle: DMSO
  survivor count: 4 of 6

## C=C[C@@](C)(O)CC/C=C(/C)CCC=C(C)C
dose: 200.0 mg/kg/injection, schedule: Q01DX009 (ip), vehicle: saline with Tween-80
  survivor count: 2 of 6
dose: 400.0 mg/kg/injection, schedule: Q01DX009 (ip), vehicle: saline with Tween-80
  survivor count: 1 of 6

## Cc1cccc(C(=O)NN)c1O
dose: 50.0 mg/kg/injection, schedule: Q01DX009 (ip), vehicle: saline + alcohol
  survivor count: 6 of 6
dose: 200.0 mg/kg/injection, schedule: Q01DX009 (ip), vehicle: saline + alcohol
  survivor count: 3 of 6

## Cc1cc(Cl)nc(Nc2ccccc2)n1
dose: 12.5 mg/kg/injection, schedule: Q01DX009 (ip), vehicle: DMSO
  survivor count: 6 of 6

## COc1cccc(C(=O)C=C(C(F)(F)F)C(F)(F)F)c1
dose: 37.5 mg/kg/injection, schedule: Q01DX009 (ip), vehicle: saline with Tween-80
  survivor count: 0 of 6

## Cc1c(C)c(CO)c(C)c(C)c1CO
dose: 12.5 mg/kg/injection, schedule: Q01DX009 (ip), vehicle: Klucel (hydroxypropylcellulose) (HPC)
  T/C: 130 % of control
dose: 25.0 mg/kg/injection, schedule: Q01DX009 (ip), vehicle: Klucel (hydroxypropylcellulose) (HPC)
  T/C: 125 % of control
dose: 50.0 mg/kg/injection, schedule: Q01DX009 (ip), vehicle: Klucel (hydroxypropylcellulose) (HPC)
  survivor count: 4 of 6

## NC(N)=Nc1ccc(S(=O)(=O)O)cc1
dose: 200.0 mg/kg/injection, schedule: Q01DX009 (ip), vehicle: saline
  survivor count: 3 of 6
dose: 400.0 mg/kg/injection, schedule: Q01DX009 (ip), vehicle: saline
  survivor count: 0 of 6
